At least one structure is not confirmed: it was looked up by name or label, or the drawing left a doubt.
Tested on: small bowel T cells
Experiment: In vitro IFNγ secretion, anti-CD3/CD28-activated small bowel T cells
Type: cell-based
Conditions: T cells from HFD-fed WT mice, 72 hour; 5-ASA 0.1 mM; rosiglitazone 0.1, 1 and 10 μM
Method: To measure the effect of IFNγ on tight-junction gene expression, we treated MODE-K cells with recombinant mouse IFNγ (Biolegend). We purified bulk dendritic cells and T cells from murine small bowels and spleens using a negative selection DC or T cell isolation kit (Stem Cell Technologies). We plated T cells at 5×10^5 cells/well with plate-bound anti-CD3/CD28 (1 μg/ml, Biolegend). […] We collected supernatants for cytokine measurements after 72 hour incubation. […] After 24 hours, we washed the cells with PBS and co-cultured them (1×10^4 cells/well) with OVA323-339 peptide and OT-II splenic or small bowel T cells (5×10^4 cells/well) for 48 hours. Supernatants were collected at 48 hours for cytokine measurement. We measured serum cytokines by Luminex Multiplex cytokine assay (Millipore, run by the UHN Microarray Center), and quantified IL-10 and IFN-γ in supernatants of anti-CD3/CD28-stimulated splenocytes or bowel immune cells (Winer et al., 2009b) by ELISA (Biolegend).

CN(CCOc1ccc(CC2SC(=O)NC2=O)cc1)c1ccccn1 (stereo not shown) [rosiglitazone]
IFNγ production: significantly reduced

Reference: patent publication US20180193361A1, “GUT ANTI-INFLAMMATORY AGENTS FOR REGULATION OF HIGH BLOOD GLUCOSE LEVELS” (UNIVERSITY HEALTH NETWORK, priority 2015, published 2018)
